This passage reports T/C and survivor count results from PubChem BioAssay AID256 (DTP/NCI, 2004).

The assay deals with CD2F1 mice, L1210 leukemia ip, survival T/C. Kind of assay: NCI In Vivo Anticancer Drug Screen. Data for tumor model L1210 Leukemia (intraperitoneal) in CD2F1 (CDF1) mice. The conditions noted are these: higher T/C = longer survival. The procedure, abridged:
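Ratio T/C, where T is the treated-group value and C the vehicle-dosed control value, from mice implanted with a transplantable tumor.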

[1] abbreviates: T/C endpoint: mean survival time, dose: 400.0 mg/kg/injection, schedule: Q01DX009 (ip), vehicle: saline with Tween-80.
[2] abbreviates: T/C endpoint: mean survival time, dose: 400.0 mg/kg/injection, schedule: Q01DX001 (ip), vehicle: saline with Tween-80.
The mark [3] stands for this setting: T/C endpoint: mean survival time, dose: 200.0 mg/kg/injection, schedule: Q01DX009 (ip), vehicle: saline with Tween-80.

The structures appear in SMILES notation. The list shows only some results of the screen, not a fair sample: it is rich in T/C values a quarter to a half above the control, in often repeated tests (any T/C) and in doses without a T/C. Other doses and runs of a compound stand elsewhere. T/C: endpoint of the treated group in % of that of the vehicle group. Some entries give survivors of the animals treated and no T/C: the source files T/C as zero there, which appears to mark a toxic dose or a test without result, not a measured value. Some survivor counts are full or nearly so, which does not show that the dose was tolerated: the source hardly ever lists a survival T/C far under the control, and the zero likely stands for such cases as well. Survivors were counted at the toxicity check, usually on the fifth day, unless a day is given; later deaths do not show. Schedule codes are those of the source, read here as Q, the interval in days (D) or hours (H), X, the number of doses. Where survival is the endpoint, the PubChem record calls one and a half times the control and up active, and a quarter to a half above the control has no call in these data; cut-offs in other NCI protocols can differ.

As to `CCC1(OC(=O)CNC)C(=O)OCc2c1cc1n(c2=O)Cc2cc3ccccc3nc2-1` (stereo not given), the T/C (T/C endpoint: median survival time, dose: 7.5 mg/kg/injection, schedule: Q04DX002 (ip), vehicle: saline) was 127 % of control and the T/C (T/C endpoint: median survival time, dose: 30.0 mg/kg/injection, schedule: Q04DX002 (ip), vehicle: saline) was 127 % of control. The survivor count (T/C endpoint: median survival time, dose: 60.0 mg/kg/injection, schedule: Q04DX002 (ip), vehicle: saline) was 6 of 6.

On to `Cc1ccc(Sc2cccc3c2C(=O)c2c(Sc4ccc(C)cc4)cccc2C3=O)cc1`, for which the survivor count under setting [1] is reported as 3 of 6.

Turning to `Cn1c(CC#N)c(C[N+](C)(C)C)c2ccccc21`, the survivor count reads like this: (T/C endpoint: mean survival time, dose: 10.0 mg/kg/injection, schedule: Q01DX009 (ip), vehicle: saline with Tween-80) 0 of 6; (T/C endpoint: mean survival time, dose: 20.0 mg/kg/injection, schedule: Q01DX001 (ip), vehicle: saline with Tween-80) 0 of 6; (T/C endpoint: mean survival time, dose: 100.0 mg/kg/injection, schedule: Q01DX001 (ip), vehicle: saline with Tween-80) 0 of 6; (T/C endpoint: mean survival time, dose: 200.0 mg/kg/injection, schedule: Q01DX001 (ip), vehicle: saline with Tween-80) 0 of 6; under setting [2], 0 of 6.

For the compound `C#CC(CC(C)CC(C)(C)C)N(C)C` (stereo not given), the survivor count reads like this: under setting [3], 3 of 6; under setting [1], 0 of 6.

As to `CC1(C)CC(=O)C=C(N2CCC(CCCC3CCN(C4=CC(=O)CC(C)(C)C4)CC3)CC2)C1`, the survivor count by setting is: under setting [3], 3 of 6; under setting [2], 1 of 6.

In the case of `O=C1Nc2ccccc2C1c1ccccc1` (stereo not given), the survivor count (T/C endpoint: mean survival time, dose: 400.0 mg/kg/injection, schedule: Q04DX002 (ip), vehicle: saline with Tween-80) is on record as 3 of 3.

In the case of `O=C(Oc1ccc(O)cc1)N(c1cccc2ccccc12)c1cccc2ccccc12`, the survivor count (T/C endpoint: mean survival time, dose: 200.0 mg/kg/injection, schedule: Q04DX002 (ip), vehicle: saline with Tween-80) was 3 of 3.

As for `O=C1C2C3C=CC(C2C(=O)N1CO)C1C2C(=O)N(CO)C(=O)C2C31` (stereo not given), the T/C reads like this: (T/C endpoint: median survival time, dose: 18.0 mg/kg/injection, schedule: Q01DX009 (ip), vehicle: water) 140 % of control; (T/C endpoint: median survival time, dose: 30.0 mg/kg/injection, schedule: Q01DX009 (ip), vehicle: water) 142 % of control. In addition, the survivor count runs as follows: (T/C endpoint: median survival time, dose: 100.0 mg/kg/injection, schedule: Q01DX009 (ip), vehicle: water) 0 of 6; (T/C endpoint: median survival time, dose: 138.9 mg/kg/injection, schedule: Q01DX009 (ip), vehicle: water) 0 of 3.

Take `O=C(O)CCC(=O)O`: the survivor count is, setting by setting: (T/C endpoint: mean survival time, dose: 320.0 mg/kg/injection, schedule: Q01DX001 (ip), vehicle: water) 2 of 6; (T/C endpoint: mean survival time, dose: 640.0 mg/kg/injection, schedule: Q01DX001 (ip), vehicle: water) 0 of 6.

As for `C=C1C(O)C2(O)OCC34C(CC5C(C)=CC(=O)C(O)C5(C)C23)OC(=O)C(OC(=O)C(C)(O)CC)C14` (stereo not given), for the setting “T/C endpoint: mean survival time, dose: 4.0 mg/kg/injection, schedule: Q01DX009 (ip), vehicle: saline + alcohol”, the survivor count is on record as 0 of 6.

As to `CC1CC2OC(=O)C(O)(CO)C2CC2(C)C(=O)C=CC12` (stereo not given), the T/C (T/C endpoint: mean survival time, dose: 100.0 mg/kg/injection, schedule: Q04DX002 (ip), vehicle: saline) is 135 % of control.

For `c1ccc(CCN2CCC(CCc3c[nH]c4ccccc34)CC2)cc1`, the survivor count by setting is: (T/C endpoint: mean survival time, dose: 100.0 mg/kg/injection, schedule: Q01DX009 (ip), vehicle: saline with Tween-80) 5 of 6; under setting [3], 0 of 6.
